In paper PMC3682539:
Results are given in words; binding and its absence hold for the method and conditions named. In cells and extracts the contact can be indirect. Some results given as binding are weak or reduced against the parent protein; the word gives no strength. Tags and fused reporters may be left off the sequences shown.

Sequences of proteins named here, by UniProt entry; tags and fusion partners are left off.
UniProt P39705: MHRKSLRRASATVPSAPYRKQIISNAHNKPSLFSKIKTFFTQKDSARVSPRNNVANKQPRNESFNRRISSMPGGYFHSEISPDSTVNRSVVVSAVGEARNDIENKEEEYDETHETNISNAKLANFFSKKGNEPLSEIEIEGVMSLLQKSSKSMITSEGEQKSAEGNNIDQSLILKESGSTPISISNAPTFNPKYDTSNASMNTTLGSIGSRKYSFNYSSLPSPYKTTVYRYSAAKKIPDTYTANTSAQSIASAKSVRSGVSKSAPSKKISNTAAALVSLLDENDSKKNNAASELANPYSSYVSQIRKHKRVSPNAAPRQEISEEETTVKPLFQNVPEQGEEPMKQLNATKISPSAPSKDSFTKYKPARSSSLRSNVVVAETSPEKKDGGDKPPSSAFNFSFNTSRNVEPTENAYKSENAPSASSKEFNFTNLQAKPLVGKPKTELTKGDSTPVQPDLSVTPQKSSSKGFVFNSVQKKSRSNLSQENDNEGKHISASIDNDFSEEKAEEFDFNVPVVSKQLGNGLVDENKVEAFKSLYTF
UniProt P32499: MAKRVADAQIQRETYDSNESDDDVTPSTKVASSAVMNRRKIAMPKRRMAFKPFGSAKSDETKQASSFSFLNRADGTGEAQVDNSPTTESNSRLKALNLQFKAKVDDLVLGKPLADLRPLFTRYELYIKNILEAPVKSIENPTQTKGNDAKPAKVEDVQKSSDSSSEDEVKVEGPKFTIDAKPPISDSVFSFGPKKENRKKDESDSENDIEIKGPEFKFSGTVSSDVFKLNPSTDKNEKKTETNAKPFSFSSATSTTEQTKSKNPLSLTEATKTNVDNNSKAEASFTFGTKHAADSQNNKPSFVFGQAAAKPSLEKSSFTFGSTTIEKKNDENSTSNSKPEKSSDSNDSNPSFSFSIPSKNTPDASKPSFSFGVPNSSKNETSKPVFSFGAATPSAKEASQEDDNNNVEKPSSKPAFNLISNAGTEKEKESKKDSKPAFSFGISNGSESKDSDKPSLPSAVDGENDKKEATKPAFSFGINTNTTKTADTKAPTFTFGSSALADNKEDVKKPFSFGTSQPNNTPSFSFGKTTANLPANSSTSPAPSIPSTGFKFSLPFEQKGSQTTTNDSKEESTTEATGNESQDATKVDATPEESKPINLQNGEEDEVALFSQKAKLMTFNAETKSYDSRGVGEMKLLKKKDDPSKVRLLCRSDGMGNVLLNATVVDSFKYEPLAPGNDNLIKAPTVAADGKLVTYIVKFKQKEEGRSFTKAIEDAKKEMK
UniProt P52593: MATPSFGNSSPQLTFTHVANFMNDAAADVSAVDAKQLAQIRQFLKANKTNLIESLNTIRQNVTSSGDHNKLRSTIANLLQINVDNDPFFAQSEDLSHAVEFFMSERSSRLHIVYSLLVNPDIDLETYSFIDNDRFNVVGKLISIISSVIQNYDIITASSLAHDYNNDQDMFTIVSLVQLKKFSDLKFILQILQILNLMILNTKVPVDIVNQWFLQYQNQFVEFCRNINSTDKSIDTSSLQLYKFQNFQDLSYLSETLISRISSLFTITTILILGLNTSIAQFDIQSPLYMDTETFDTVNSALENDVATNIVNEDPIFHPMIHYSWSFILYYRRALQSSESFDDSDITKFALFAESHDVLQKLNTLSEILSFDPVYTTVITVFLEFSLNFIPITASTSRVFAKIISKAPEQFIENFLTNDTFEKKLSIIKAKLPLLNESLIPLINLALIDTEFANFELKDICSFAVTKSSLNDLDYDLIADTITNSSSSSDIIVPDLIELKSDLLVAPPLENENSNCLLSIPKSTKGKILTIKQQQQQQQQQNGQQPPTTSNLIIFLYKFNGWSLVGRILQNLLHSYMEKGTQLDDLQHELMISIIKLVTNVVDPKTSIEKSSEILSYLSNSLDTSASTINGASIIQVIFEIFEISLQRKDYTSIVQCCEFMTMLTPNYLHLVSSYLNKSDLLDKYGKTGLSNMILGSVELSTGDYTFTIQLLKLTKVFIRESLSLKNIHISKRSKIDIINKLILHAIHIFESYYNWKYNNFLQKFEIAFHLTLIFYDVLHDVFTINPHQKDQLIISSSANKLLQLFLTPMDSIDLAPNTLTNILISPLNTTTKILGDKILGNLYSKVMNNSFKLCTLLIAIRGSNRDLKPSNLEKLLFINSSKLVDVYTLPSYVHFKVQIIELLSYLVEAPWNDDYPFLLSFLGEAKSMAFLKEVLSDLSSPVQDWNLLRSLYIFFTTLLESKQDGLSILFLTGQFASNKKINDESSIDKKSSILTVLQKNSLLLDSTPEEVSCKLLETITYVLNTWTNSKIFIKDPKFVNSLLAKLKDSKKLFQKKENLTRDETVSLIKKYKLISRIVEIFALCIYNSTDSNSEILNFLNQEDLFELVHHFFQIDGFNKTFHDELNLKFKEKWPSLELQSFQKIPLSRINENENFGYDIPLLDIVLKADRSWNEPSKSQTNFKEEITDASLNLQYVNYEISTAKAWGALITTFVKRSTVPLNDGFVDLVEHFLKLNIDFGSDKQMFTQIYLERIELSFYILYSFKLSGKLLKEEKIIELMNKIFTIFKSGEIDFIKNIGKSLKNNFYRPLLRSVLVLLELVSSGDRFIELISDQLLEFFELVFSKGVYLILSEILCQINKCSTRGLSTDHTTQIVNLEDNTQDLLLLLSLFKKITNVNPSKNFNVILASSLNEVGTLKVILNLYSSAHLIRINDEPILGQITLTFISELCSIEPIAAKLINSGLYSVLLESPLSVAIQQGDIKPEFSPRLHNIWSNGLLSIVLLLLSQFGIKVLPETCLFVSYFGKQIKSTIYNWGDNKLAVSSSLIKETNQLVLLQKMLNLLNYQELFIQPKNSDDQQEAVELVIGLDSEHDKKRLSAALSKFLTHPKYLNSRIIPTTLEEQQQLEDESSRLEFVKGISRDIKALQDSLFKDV
UniProt P40368: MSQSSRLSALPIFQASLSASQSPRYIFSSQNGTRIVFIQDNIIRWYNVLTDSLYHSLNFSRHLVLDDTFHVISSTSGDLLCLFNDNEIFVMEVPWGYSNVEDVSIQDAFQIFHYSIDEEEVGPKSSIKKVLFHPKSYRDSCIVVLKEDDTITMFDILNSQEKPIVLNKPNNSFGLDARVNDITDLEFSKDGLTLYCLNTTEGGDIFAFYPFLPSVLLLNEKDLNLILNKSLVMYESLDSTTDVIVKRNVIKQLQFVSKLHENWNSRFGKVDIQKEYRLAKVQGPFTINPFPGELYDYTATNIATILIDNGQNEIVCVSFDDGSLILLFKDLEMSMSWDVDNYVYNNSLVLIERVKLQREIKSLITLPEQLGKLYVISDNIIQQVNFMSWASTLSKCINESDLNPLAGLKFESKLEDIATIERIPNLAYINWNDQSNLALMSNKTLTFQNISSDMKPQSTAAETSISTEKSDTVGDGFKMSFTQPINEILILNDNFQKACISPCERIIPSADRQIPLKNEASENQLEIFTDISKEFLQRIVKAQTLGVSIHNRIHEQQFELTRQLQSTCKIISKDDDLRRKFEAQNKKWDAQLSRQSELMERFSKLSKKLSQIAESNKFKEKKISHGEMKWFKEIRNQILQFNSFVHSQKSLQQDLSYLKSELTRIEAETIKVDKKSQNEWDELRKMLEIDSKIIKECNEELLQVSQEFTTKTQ
UniProt P52891: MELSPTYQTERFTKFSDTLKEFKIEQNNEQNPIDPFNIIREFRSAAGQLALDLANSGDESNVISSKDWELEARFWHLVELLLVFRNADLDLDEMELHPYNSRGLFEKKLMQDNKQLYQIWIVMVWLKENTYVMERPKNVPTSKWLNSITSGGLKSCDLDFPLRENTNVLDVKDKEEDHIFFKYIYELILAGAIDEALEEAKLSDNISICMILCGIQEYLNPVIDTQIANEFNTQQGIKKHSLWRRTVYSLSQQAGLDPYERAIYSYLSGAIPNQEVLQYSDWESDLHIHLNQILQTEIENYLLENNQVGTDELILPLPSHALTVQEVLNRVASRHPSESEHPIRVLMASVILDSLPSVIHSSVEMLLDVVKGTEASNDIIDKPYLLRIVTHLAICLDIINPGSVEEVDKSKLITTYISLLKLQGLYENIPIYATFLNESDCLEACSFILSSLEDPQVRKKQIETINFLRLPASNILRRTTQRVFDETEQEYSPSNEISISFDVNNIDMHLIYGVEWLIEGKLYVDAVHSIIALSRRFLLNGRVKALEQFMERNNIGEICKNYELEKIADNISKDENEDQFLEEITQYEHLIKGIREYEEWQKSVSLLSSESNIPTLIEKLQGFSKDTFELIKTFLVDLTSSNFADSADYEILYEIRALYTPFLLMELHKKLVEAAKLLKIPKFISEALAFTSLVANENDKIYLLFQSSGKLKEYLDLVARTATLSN

B1: GST-Hog1 (enzyme, UniProt P32485 1-435)
chain: MTTNEEFIRTQIFGTVFEITNRYNDLNPVGMGAFGLVCSATDTLTSQPVAIKKIMKPFSTAVLAKRTYRELKLLKHLRHENLICLQDIFLSPLEDIYFVTELQGTDLHRLLQTRPLEKQFVQYFLYQILRGLKYVHSAGVIHRDLKPSNILINENCDLKICDFGLARIQDPQMTGYVSTRYYRAPEIMLTWQKYDVEVDIWSAGCIFAEMIEGKPLFPGKDHVHQFSIITDLLGSPPKDVINTICSENTLKFVTSLPHRDPIPFSERFKTVEPDAVDLLEKMLVFDPKKRITAADALAHPYSAPYHDPTDEPVADAKFDWHFNDADLPVDTWRVMMYSEILDFHKIGGSDGQIDISATFDDQVAAATAAAAQAQAQAQAQVQLNMAAHSHNGAGTTGNDHSDIAGGNKVSDHVAANDTITDYGNQAIQYANEFQQ

What was measured:
GST-Hog1 (S. cerevisiae) [1] = target: T1, GST-Hog1 (S. cerevisiae) (UniProt P32485); assay: pull-down; GST or GST-Hog1 pulled down on glutathione-Sepharose from extracts of yeast treated with 0.4 M NaCl for 10 min; 2 mg cleared extract, overnight at 4 °C, buffer A (50 mM Tris-HCl pH 7.5, 150 mM NaCl, 0.1% Triton X-100); TAP-tagged proteins detected with PAP antibody
T1 sequence: B1 chain

GST-Hog1 (S. cerevisiae) [2] = target: T1, GST-Hog1 (S. cerevisiae); assay: pull-down; GST pulldown of GST-Hog1 from yeast expressing Nup2-HA or Nup60-HA; HA-tagged proteins detected (Fig. 5B, left panels)
Nup60-HA (S. cerevisiae) = Nup60-HA (S. cerevisiae) (UniProt P39705); assay: co-IP; HA pulldown (immunoprecipitation) of Nup2-HA or Nup60-HA from yeast expressing GST-Hog1; Hog1 detected (Fig. 5B, right panels)
Nup2-HA (S. cerevisiae) = Nup2-HA (S. cerevisiae) (UniProt P32499); assay: as above

Row | Molecule | binding (GST-Hog1 (S. cerevisiae) [1]) | other results
1 | TAP-tagged Nup188 (from UniProt P52593 1-1655) | binds | 
2 | TAP-tagged Nup60 (from UniProt P39705 1-539) | binds | 
3 | Nup2-HA (from UniProt P32499 1-720) |  | binding (GST-Hog1 (S. cerevisiae) [2]): binds
4 | TAP-tagged Nup82 (from UniProt P40368 1-713) | binds | 
5 | TAP-tagged Nup84 (from UniProt P52891 1-726) | binds | 
6 | Nup60-HA (from UniProt P39705 1-539) |  | binding (GST-Hog1 (S. cerevisiae) [2]): binds
7 | TAP-tagged Nup2 (from UniProt P32499 1-720) | binds | 
8 | B1 |  | binding (Nup60-HA (S. cerevisiae)): binds; binding (Nup2-HA (S. cerevisiae)): binds
